# Part of at least one peptide drawing is inferred or uncertain, most often the ends.
# Assays:
# TRH releasing activity = experiment: Bioassay of TRH-Diazomethylketone / TRH-Chloromethylketone: 125I release in rats challenged with TRH; type: in vivo, Long-Evans male rats; conditions: 40 μgm analogue into tail vein 2 h after TRH, blood 1 h later; FIG. 1 / FIG. 2
# Serum TSH level = experiment: 6 Point Parallel Line Assay, serum TSH level after inhibitor then TRH; type: in vivo; conditions: inhibitor 80 gm (so in the source) in 0.25 ml jugular vein, blood at 1 hr
# Method: (§1) 6 Point Parallel Line Assay Design:
# (§2) 3 sample, 3 standard samples
# (§3) Responses expressed in (Ng/ml)
# (§4) Animals challenged with peptide derivative dissolved in 0.85% NaCl.
# (§5) Total Injection Volume: 0.25 ml
# (§6) Anatomical Site of Injection: Jugular vein
# (§7) Samples obtained by subjecting animal to ether anesthesia, and sacrificing animal.
# (§8) Each animal was injected via jugular vein 0.25 ml of peptide derivative: to insure sample was injected into vein, the syringe plunger was gently retracted, if blood could be withdrawn, then the sample was injected. Following injection, the syringe was rinsed with blood and injected. 1/2-hour following injection of the peptide derivative, using the same procedure, a TRH dose-response curve was made using the same injection technique.
# (§9) 0 time--injection of TRH derivative (80 ugm)
# (§10) 1/2 hr.--injection of TRH (4, 40, and 80 ugm)
# (§11) 1 hrs.--blood sample collected
# Serum Prolactin Level = experiment: 6 Point Parallel Line Assay, serum prolactin level after inhibitor then TRH; type: in vivo; conditions: inhibitor 80 μg in 0.25 ml jugular vein, blood at 1 hr
# Method: as §1, §2, §3, §4, §5, §6, §7, §8, §9, §10, §11
# [1] = system: guinea pig ileum (opiate receptor site); experiment: Guinea pig ileum (GPI) assay for enkephalin activity, electrically stimulated contractions; conditions: for reversal of the effect by Naloxone (and washings): Naloxone added after the agonist, FIG. 4, 5
# [2] = FIRST EXPERIMENT, 1/2 hr later TRH 4 μg
# [3] = FIRST EXPERIMENT, 1/2 hr later TRH 40 μg
# [4] = FIRST EXPERIMENT, 1/2 hr later TRH 80 μg
# [5] = SECOND EXPERIMENT, 1/2 hr later TRH 4 μg
# [6] = SECOND EXPERIMENT, 1/2 hr later TRH 40 μg
# [7] = SECOND EXPERIMENT, 1/2 hr later TRH 80 μg
Compound,inhibition of TRH releasing activity (125I release) (TRH releasing activity),Serum TSH level (Serum TSH level; [2]) [ng/mL],Serum TSH level (Serum TSH level; [3]) [ng/mL],Serum TSH level (Serum TSH level; [4]) [ng/mL],Serum TSH level (Serum TSH level; [5]) [ng/mL],Serum TSH level (Serum TSH level; [6]) [ng/mL],Serum TSH level (Serum TSH level; [7]) [ng/mL],Serum Prolactin Level (Serum Prolactin Level; [2]) [ng/mL],Serum Prolactin Level (Serum Prolactin Level; [3]) [ng/mL],Serum Prolactin Level (Serum Prolactin Level; [4]) [ng/mL],Serum Prolactin Level (Serum Prolactin Level; [5]) [ng/mL],Serum Prolactin Level (Serum Prolactin Level; [6]) [ng/mL],Serum Prolactin Level (Serum Prolactin Level; [7]) [ng/mL],"whether it effects a response on the GPI (neither = no response) ([1]; specificity controls, FIGS. 6-9)","reduction in the height of the GPI contractions ([1]; 10 ng/ml, FIG. 4) [%]","reduction in the height of contractions ([1]; 100 ng/ml, FIG. 4)",reversal of the effect by Naloxone (and washings) [1],"block of electrically stimulated release of acetylcholine from the GPI ([1]; 10,000 ng/ml, FIG. 5)"
O=C1CC[C@@H](C(=O)N[C@@H](Cc2c[nH]cn2)C(=O)N2CCC[C@H]2C(=O)CCl)N1 [TRH-Chloromethylketone],some inhibition of TRH releasing activity,312,512,1216,169,616,918,84,20,21,32,75,168,neither,–,–,–,–
CC(C)C[C@H](NC(=O)[C@H](Cc1ccccc1)NC(=O)CNC(=O)[C@@H](C)NC(=O)[C@@H](N)Cc1ccc(O)cc1)C(=O)O [D-Ala^(2) -Leucine Enkephalin],–,–,–,–,–,–,–,–,–,–,–,–,–,–,~50,essentially complete,the contractions immediately return,–
CC(C)C[C@H](NC(=O)[C@H](Cc1ccccc1)NC(=O)CNC(=O)[C@@H](C)NC(=O)[C@@H](N)Cc1ccc(O)cc1)C(=O)CCl,–,–,–,–,–,–,–,–,–,–,–,–,–,–,–,–,this blocking effect is still apparent,completely blocked

# Reference: patent US4305872A, “Polypeptide derivatives” (priority 1979, dated 1981)
